Measured values: PMC6168688
These are yes or no findings as the source states them, for the method shown. For some of these results: In cells and extracts the contact can be indirect. Some results given as binding are weak or reduced against the parent protein; the word gives no strength. Tags and fused reporters may be left off the sequences shown.

B1: SLOW WALKER 2 (SWA2), full length, yeast two-hybrid matrix fusion (pPC86/pPC97) (protein, UniProt F4IDC2 1-1043)
chain: MSKIKPLSKSSQDLSLLTSDIASFASSIGLASALPSSGFNDTDFRKPAKSKTQKRKKPKKDQQHKDEDEEGEPKSNIGNEKGKDFGARKQNKDAPVKQTLQPKPKPGFLSIDDESTGYKKKRFDEFKSLPKLPLVKASLLSSEWYNDAAEFEEKVFGGRKVAVANKEDFKGVVEKKRELGERLMWQYAEDFATSKGKGGDMKMVISAQKSGTVADKITAFEIMVGENPIANMRSLDALLGMVTSKVGKRFAFKGLKALSEILIRLLPDRKLKSLLQRPLNIIPENKDGYSLLLFWYWEDCLKQRYERFVTALDESSKDMLPELKDKALKTIYFMLTSKSEQERKLLVSLVNKLGDPQNKSASNADYHLTNLLADHPNMKAVVIDEVDSFLFRPHLGLRAKYHAVNFLSQIRLSHKGEDPKVAKRLIDVYFALFKVLTTEANRKQGADDKGAADKKKSNPKDTKQEVSTDSPIELDSRILSALLTGVNRAFPYVSTDEADDIIESQTPVLFKLVHSANFNVGVQSLMLLDKISSKNKIVSDRFYRALYSKLLLPSAMNSSKAEMFIGLLLRAMKNDINIKRVAAFSKRVLQVALQQPPQYACGCLFLLSEVLKSRPPLWKMVVQRESVEEEEDIEHFEDVIEGDDVDPNKKAENDENVVEVDHDGVEKSSRDGDSSSDDEEALAIRLSDEEDDNASDDSEELIRNETPQLEEVMEVSNDMEKRSQPPMRPSSLPGGYDPRHREPSYCNADRASWWELGVLSKHAHPSVATMAGTLLSGTNIVYNGNPLNDLSLTAFLDKFMEKKPKQNTWHGGSQIEPSKKLDMSNRVIGAEILSLAEGDVAPEDLVFHKFYVNKMTSTKQSKKKKKKKLPEEEAAEELYDVNDGDGGENYDSDVEFEAGDESDNEEIENMLDDVDDNAVEEEGGEYDYDDLDGVAGEDDEELVADVSDAEMDTDMDMDLIDDEDDNNVDDDGTGDGGDDDSDGDDGRSKKKKKEKRKRKSPFASLEEYKHLIDQDEKEDSKTKRKATSEPTKKKKKKKSKASE
B2: AtNOC3, full length, BiFC fusion (pBiFP1-4) (protein, UniProt F4IDJ0 1-830)
chain: MGKNRRKQKVIPPPLLPPDVAEEDIEFSDEDLKYVKENTDYAQFVSQIDTAAINKQCGGRVMTVEDKYEEERSKRKTLQEEKGNGEILVDPVDVLPVKTLDGKLHYRTESKKSKLAEAETDEAEKDVLEDEHVLNKSQRREKAKKSKREAKKHEKDLPDEILQEEEETPQAAVLAEVKEELSAEESFENKKNKIAELGMLLLSDPEANIKTLKDMLDICKDQNTKIVKLALLSLLAVFKDIIPGYRIRLPTEKELEMKISKEVKKTRFYESTLLKAYKSYLQKLIIFEKQSVYNQIANRCLCTLLEAVPHFNYRDNLLIAVVRNISSPDEVVRRLCCSTIRYLFSNEGKHGGELTVQAVRLIADHVKAHNCQLHPNAIEVFMSIRFDEDIGKPNKEDEHNKKYKKNNKRKTQEEQNQVQENERKKSKKDMMSKIRDEVSADHRGVTYEPDAKERRKMQTETLSAVFETYFRILRNTMYTIGERTEEIPTSNPGAFGSHPLLAPCLDGLAKFTQQLDLDYMGDLMNYLKKLASSSSSVSNNTKQKNSKLLTVSERLRCCLVAFKVMRSNLNALNVDLQDFFVQLYNLILEYRPGRDSGVILAESLKIMLCDDRHQDMQKAAAFVKRLATFALCFGCAESMSALVTLKTLLQKNVKCRNLLENDAGGGSVSGSIAKYQPYATDPNLSGALATVLWELSLLSKHYHPAISTMATTVSNMNTSQSQTFLSAVTPQQAFADFSLVKESFEPKNESRKLNNKRKRESLPEEAKNVPEIDMVKLSKKLKENFTILRDIKEDERVRMELLQSEEKKPLKKQNNVVKKKLKNPKSKKQI
B3: REBELOTE (RBL), full length, BiFC fusion (pBiFP1-4) (protein, UniProt Q0WVH0 1-594)
chain: MGKLGKKARKFAKKNLQSVEKRSRKLKPFIKKKFAKRNERHQAGDKQEKKVEQQPKKRCQEEEFQDIAIDAVFGKDDDEVLRDGDSDSDGYLDELVNETDSDIMKCKVLSRSFLATCCDMVDKEQYVPALVRLLNWYRAACQYGHEPSGIARPNIYYDIEDSETFAKVIIFVLQKADHTFRSILGLSDSSTKEKILKLKNNPKWDSLKPLVKSFFRSTLHLVKQAGDLEIISFTLTQLRVSIVFLAAFPDLLKKLIKISVHLWVTGEETISQQAFLILKDISMVFNSECFDSCLINMYKAFLHDCDIPKANSEQRPFLRDSLVELCSQDVQKSYTKASVSITQLAKLLKMALATKNKEAVEKIHSGEYINCVDLWVNFISANVQDCDLQPLLYTIVQVINGVAQLIIGPRYLLLRVKCIHWLNHLSRTSGIFIPIASLVLDMLEYKTTNDGEKQEQKLEAVSTVKLPKNWLKSQNFQEQCIFSVIELLAVHFAQWSFHISFPDLATIPVMRLKKFHERSTMEGLKRVVKRFIEQVESNIEFVQRKRDDVTFSPNDQQSADTFMQLEKQNANAPYTQYYQSIIDKALGTNKKKKK
B4: REBELOTE (RBL), full length, yeast two-hybrid matrix fusion (pPC86/pPC97) (protein, UniProt Q0WVH0 1-594)
chain: B3 chain
B5: AtNOC2, full length, yeast two-hybrid matrix fusion (pPC86/pPC97) (protein, UniProt Q9ZPV5 1-764)
chain: MGAKDDKKRVKKLKSKKLEAEEELNNVQEIDAHDIVMEQKSDKKRGKKVKSKKAEAEEHEEELKRLQEKDPDFFQYMKEHDAELLKFDATEIEDDADVEPDTDLEDTEKEGDDEATKMEIAKKVHVQKTITASMVDAWSKSIEDEAKLGGVRSILRAYRTACHYGDDTGDDQSTKFSVMSSEVFNKIMIYVLSEMDGILRKLLRFPEDTRGTKETILELTNTRPWKNYNHLVKSYLGNSLHVLNQMTDTEMITFTLRRLKHSSVFLAAFPSLLRKYIKVALHFWGTGSGALPVVSLLFLRDLCIRLGSDCVDDCFKGMYKAYVLNCQFVNADKLKHISFLGNCFIELLGTDISAAYQHAFVFIRQLAMILREALNTKTKEAFRKVYQWKFIHCLELWTGAVCAYSSQSELRPVAYPLAQIITGVARLVPTARYTPLRLRCVRMLNRLAAATGTFIPVSMLLVDMLEMKELNRPPTGGVGKGVDLRTLLKVSKPAVKTRAFQEACVYTVVEELVEHLSQWSCSVAFFELSFIPTIRLRSFCKSTKAERFRKEMKQLISQIEANSEFVNKKRALIKFLPNDLAAESFLEDEKKAGKTPLLQYAEIIRQRAQQRNESLVESDVIVGENSAVFGKNAPSSDDEDDEDRMEKGAAAFNSSWLPGSDSKEKEPEEEKTKKKKRKRGGKSKTEKKQDEQGLGEDDVVEDFVLSSDEEEEDLFDIGGDKDEDDAVDEIADPETKTSKKTKGTYKTWHKAYKKTKKKKARVAS
B6: SLOW WALKER 2 (SWA2), full length, BiFC fusion (pBiFP1-4) (protein, UniProt F4IDC2 1-1043)
chain: B1 chain

Assays:
[1] = target: T1, AtNOC2, full length, yeast two-hybrid matrix fusion (pPC86/pPC97) (A. thaliana) (UniProt Q9ZPV5); test: two-hybrid; A. thaliana NOC proteins tested two by two, in both directions, pPC86- and pPC97-based vectors; growth on SD-HTL selective media (10-3 dilution)
T1 sequence: B5 chain

[2] = target: T2, REBELOTE (RBL), full length, yeast two-hybrid matrix fusion (pPC86/pPC97) (A. thaliana) (UniProt Q0WVH0); test: as above
T2 sequence: B3 chain

[3] = target: T3, AtNOC2, full length, BiFC fusion (pBiFP1-4) (A. thaliana) (UniProt Q9ZPV5); test: split reporter; BiFC: two A. thaliana NOC proteins fused to N-term or C-term regions of YFP, transient coexpression in epidermal cells of N. benthamiana leaves, with H2B-mRFP or FIB-mRFP marker
T3 sequence: B5 chain

[4] = target: T4, REBELOTE (RBL), full length, BiFC fusion (pBiFP1-4) (A. thaliana) (UniProt Q0WVH0); test: as above
T4 sequence: B3 chain

Binder	binding [1]	binding [2]	binding [3]	binding [4]
B1	binds	binds	–	–
B2	–	–	binds	binds
B3	–	–	binds	binds
B4	binds	–	–	–
B5	binds	–	–	–
B6	–	–	binds	binds
